Experimental data: PubChem BioAssay AID2517 (National Center for Advancing Translational Sciences (NCATS), 2010)
Hit rate of the full screen: of about 350,000 compounds, about 1,200 (0.34%) were called active. Inconclusive means that the source gave no clear call. Such entries were picked first, then a sample of the others. The call rests on the fitted dose curve; in most records, active means well fitted inhibition curve with a large enough effect; inconclusive means small, poorly fitted or top-dose-only effect; inactive means no such curve, though single readings can be large or run the other way. Potencies of inconclusive entries are doubtful fits and often do not repeat.

Amino acid sequences for entries named in this document (tags omitted).
UniProt P27695, whole entry, looked up: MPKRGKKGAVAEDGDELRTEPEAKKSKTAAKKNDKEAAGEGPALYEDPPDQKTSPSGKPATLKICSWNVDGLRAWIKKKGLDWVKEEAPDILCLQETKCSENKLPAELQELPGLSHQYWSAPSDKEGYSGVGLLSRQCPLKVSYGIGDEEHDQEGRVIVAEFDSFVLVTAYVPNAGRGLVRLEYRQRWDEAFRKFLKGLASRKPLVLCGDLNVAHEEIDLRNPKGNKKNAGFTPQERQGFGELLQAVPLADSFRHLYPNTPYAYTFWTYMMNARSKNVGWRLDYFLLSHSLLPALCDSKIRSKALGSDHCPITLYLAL

Each compound was assayed against DNA repair nuclease/redox regulator APEX1 (Homo sapiens) (UniProt P27695) (assay: qHTS Assay for Inhibitors of the Human Apurinic/apyrimidinic Endonuclease 1 (APE1)). Conditions: recombinant APE1, TAMRA/BHQ-2 abasic DNA cleavage fluorescence; activity change, negative = inhibition: at 65.8 µM (top of the series).
How it was run: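 Quantitative HTS: incision of a TAMRA/BHQ-2 double-stranded substrate bearing a tetrahydrofuran abasic site by 0.75 nM APE1 raises fluorescence. Substrate 50 nM final, added after 15 min compound preincubation at room temperature; progress as third-minus-first kinetic read difference.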
Further: nearly all actives have a fitted effect of over 55% in size.
Potency means the concentration at half of the fitted maximal effect.
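Wherever activity change, negative = inhibition is given: plate controls were vehicle for no effect and reference inhibitor for full effect.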

SMILES | Potency | activity change, negative = inhibition
CN(c1cccnc1)c1ncnc2[nH]ncc12 | inconclusive: 39.8 µM [inhibitor, single point] | 
CC(=O)NC1=NC(=O)/C(=C/c2cc(C)n(-c3ccc(NC(C)=O)cc3)c2C)S1 |  | inactive: -1.57%
CCOc1ccc(CN(C)CC(=O)Nc2cccc(S(=O)(=O)N(C)c3ccccc3)c2)cc1 | inconclusive: 0.708 µM [inhibitor, full curve, poor fit] | 
O=C(NCC1CCCO1)c1cccc(S(=O)(=O)NCc2ccccc2)c1 (stereo unspecified) | inconclusive: 89.1 µM [inhibitor, single point] | 
COc1cc([C@H]2OC[C@H]3[C@@H]2CO[C@H]3c2ccc(O)c(OC)c2)ccc1O |  | inactive: 1.28%
NS(=O)(=O)c1cc2c(cc1Cl)NC(C1CC3C=CC1C3)NS2(=O)=O (stereo unspecified) | inconclusive: 39.8 µM [inhibitor, single point] | 
C=CCn1c(NC(C)c2cc(Cl)ccc2O)nc2ccccc21 (stereo unspecified) | inconclusive: 17.8 µM [inhibitor, single point] | 
NS(=O)(=O)c1ccc(NCc2ccccc2OCc2ccccc2F)cc1 | inconclusive: 39.8 µM [inhibitor, single point] | 
COc1cc(C2C(C#N)=C(N)Oc3cc(C)oc(=O)c32)cc2c1OCO2 (stereo unspecified) | inconclusive: 39.8 µM [inhibitor, single point] | 
NC(=O)CCN1CCN(S(=O)(=O)/C=C/c2ccccc2)CC1 |  | inactive: -12.8%
Cc1ccccc1CSCC(=O)NC(=O)NCc1ccco1 | inconclusive: 3.55 µM [inhibitor, single point] | 
CC1CN(S(=O)(=O)c2cccc(C(=O)OCC(=O)c3cccs3)c2)CC(C)O1 (stereo unspecified) | inconclusive: 17.8 µM [inhibitor, single point] | 
O=C1C=C(O)C(n2cncn2)C(c2ccc3c(c2)OCO3)C1 (stereo unspecified) |  | inactive: -8.04%
CC(C)(C)c1cc(-c2csc(Nc3ccccc3)[n+]2Cc2ccc(C(=O)O)cc2)cc(C(C)(C)C)c1O |  | inactive: 3.1%
Oc1ccc(-n2cnnn2)cc1 | inconclusive: 5.01 µM [inhibitor, single point] | 
CN(C)C(=O)c1ccc(-c2ccc3ncnc(Nc4ccc(F)cc4)c3c2)cc1 | inconclusive: 44.7 µM [inhibitor, single point] | 
Cc1ccc(Cc2cnc(N)s2)o1 | active: 28.2 µM | 
CC[C@@H]1Cn2c(c3nc(-c4cc(Cl)cc(Cl)c4Cl)nc-3n(C)c2=O)N1 |  | inactive: -2.61%
Cc1ccc(N2CC(C(=O)OCC(=O)c3ccc[nH]3)CC2=O)cc1 (stereo unspecified) |  | inactive: -4.76%
O=C(CCc1ccccc1)NC(=S)Nc1cc(C(F)(F)F)ccc1N1CCOCC1 |  | inactive: 15.2%
CCOc1cc2[nH]c(=S)n(C(C)C)c(=O)c2cc1OCC | inconclusive: 0.0355 µM [inhibitor, full curve, poor fit] | 
C[C@H](CO)NC(=O)[C@H](C)[C@H]1C[C@]1(C)[C@H](NC(=O)OCc1ccccc1)c1ccccc1 | inconclusive: 3.55 µM [inhibitor, single point] | 

SMILES | Potency | activity change, negative = inhibition
CN(CCOc1ccc(Cl)c(Cl)c1)Cc1ccccc1 | inconclusive: 8.44 µM [inhibitor, single point] | 
C=CCNC(=O)CSc1nc2cc(C(=O)OCC)ccc2n1CC |  | inactive: -6.5%
COc1ccc(OC)c([N+](=O)[O-])c1C(N)=O | inconclusive: 25.1 µM [inhibitor, single point] | 
CC(C)(C)NC(=O)c1cccc2c1C(=O)c1ccccc1-2 | inconclusive: 7.08 µM [inhibitor, single point] | 
COCCn1c(C)cc(C(=O)CSc2nc3nc(C)cc(C)n3n2)c1C |  | inactive: 11.6%
COC(=O)[C@@]1(Cc2ccc(F)cc2)[C@H]2c3cc(C(=O)N(C)C)n(CCF)c3C[C@H]2CN1C(=O)c1ccccc1 | inconclusive: 39.8 µM [inhibitor, single point] | 
CCOC(=O)N1CCC(=NNC(=O)c2cc3ccccc3cc2O)CC1 | inconclusive: 14.1 µM [inhibitor, partial curve] | 
CCc1ccc(N2CC(C(=O)N/N=C/c3cccc([N+](=O)[O-])c3)CC2=O)cc1 (stereo unspecified) | inconclusive: 44.7 µM [inhibitor, single point] | 
Cc1cc(NS(=O)(=O)c2ccc(NC(=O)c3cnc4sccn4c3=O)cc2)nc(C)n1 | inconclusive: 44.7 µM [inhibitor, single point] | 
CCc1nc(NC(=O)NS(=O)(=O)c2ccccc2C(=O)OC)nc(OC)n1 | inconclusive: 28.2 µM [inhibitor, single point] | 
CCOC(=O)C1=C(C)N=c2s/c(=C/c3ccc(OCC(=O)O)cc3)c(=O)n2C1c1ccc(F)cc1 (stereo unspecified) |  | inactive: -40.3%
CCOc1cc(N2CCOCC2)c(OCC)cc1NC(=O)c1cccc(N(C)C)c1 | inconclusive: 14.1 µM [inhibitor, partial curve, poor fit] | 
COC(=O)c1ccc(Oc2c(C(F)(F)F)oc3c(CN4CCN(C)CC4)c(O)ccc3c2=O)cc1 | inconclusive: 0.0141 µM [inhibitor, full curve, poor fit] | 
NCCCCCc1nnc(SCC(N)=O)o1 | inconclusive: 39.8 µM [inhibitor, single point] | 
O[C@H](CN1CCN(c2cccc(Cl)c2)CC1)C(c1ccccc1)c1ccccc1 | inconclusive: 44.7 µM [inhibitor, single point] | 
CCc1ccc(-n2c(SCc3cc(=O)n4cc(Br)ccc4n3)nc3[nH]ncc3c2=O)cc1 | inconclusive: 20 µM [inhibitor, single point] | 
COc1ccccc1Cc1nnnn1CC(=O)O | inconclusive: 0.0398 µM [inhibitor, full curve, poor fit] | 
C=CCn1c(SCC(=O)N2CCOCC2)nc2scc(-c3ccco3)c2c1=O |  | inactive: -15%
CCCCCCCCCCCCC/C=C/[C@@H](O)[C@H](CO)NC(=O)CCCCC | inconclusive: 31.6 µM [inhibitor, single point] | 
Cc1ccc(S(=O)(=O)N[C@H]2COC(=O)C/C=C\[C@@H](C)COC(=O)C/C=C\[C@@H]2C)cc1 | inconclusive: 3.98 µM [inhibitor, single point] | 
O=C(NC(=S)Nc1cc(C(F)(F)F)ccc1N1CCOCC1)c1ccco1 | inconclusive: 3.16 µM [inhibitor, single point] | 
OC1OC[C@H](O)[C@H](O)[C@H]1O (stereo partly specified) | inconclusive: 20 µM [inhibitor, single point] | 

SMILES | Potency | activity change, negative = inhibition
O=c1oc(-c2ccccc2)nc2c1cnn2-c1ccccc1 |  | inactive: 0.236%
Cc1cc(N/N=C(/CCC(=O)O)C(=O)O)nc2ccccc12 | inconclusive: 8.91 µM [inhibitor, single point] | 
O=C(NC(=O)c1ccccc1O)c1ccc2c(c1)CCO2 | inconclusive: 0.0045 µM [inhibitor, full curve, poor fit] | 
CC1(C)Cc2c(C#N)c(NCCc3ccccc3)nc(-c3ccco3)c2CO1 |  | inactive: -3.41%
CC(=O)C1=C(C)NC(SCC(=O)c2ccc(C)cc2)=C(C#N)C1c1ccco1 (stereo unspecified) | inconclusive: 28.2 µM [inhibitor, single point] | 
C=CCON1C(=O)c2ccccc2C1=O | inconclusive: 2.82 µM [inhibitor, single point] | 
O=C1[C@H]2[C@H]3[C@H](O)[C@H](O)C/C(=N/OCc4ccccc4)[C@@H]3CC[C@@H]2C(=O)N1c1cccc(Oc2ccccc2)c1 | inconclusive: 3.55 µM [inhibitor, single point] | 
CCC1CC=CC2C1C(=O)N(Cc1ccccc1)C2c1ccoc1 (stereo unspecified) |  | inactive: -4.35%
COc1ccc2cc(C3(C)NC(=O)N(CC(=O)NCC(F)(F)F)C3=O)ccc2c1 (stereo unspecified) |  | inactive: -2.75%
O=C1Cc2cc(S(=O)(=O)Nc3ccc(N4CCOCC4)cc3)ccc2N1 | inconclusive: 33.6 µM [inhibitor, single point] | 
CCN(CC)S(=O)(=O)c1ccc(N2CCOCC2)c(NC(=O)c2c3c(nc4ccccc24)CCC3)c1 | inconclusive: 39.8 µM [inhibitor, partial curve, poor fit] | 
CC(=O)Nc1ccc(S(=O)(=O)N2CCCC(C(=O)O)C2)cc1 (stereo unspecified) | inconclusive: 4.47 µM [inhibitor, single point] | 
CCNc1nc(Cl)nc(-c2cn(-c3ccccc3)c3ccccc23)n1 | inconclusive: 7.08 µM [inhibitor, single point] | 
O=C(Cc1ccc([N+](=O)[O-])cc1)N/N=C/c1ccco1 | inconclusive: 39.8 µM [inhibitor, single point] | 
CCOc1ccccc1NC(=O)c1c(NC(=O)CCC(=O)O)sc2c1CCCCC2 | inconclusive: 35.5 µM [inhibitor, single point] | 
O=C(N/N=C/c1ccc(F)cc1)c1cc(-c2ccco2)nc2ccccc12 | active: 4.47 µM | 
COC(=O)C1=C(C)N(Cc2ccccc2)[C@]23O[C@](C(=O)OC)(C(=O)N2C1c1ccccc1)C1CCCC(=O)C13 (stereo partly specified) | inconclusive: 7.94 µM [inhibitor, single point] | 
COc1ccccc1N1CCN(CC(=O)Nc2nc(C)c(C(=O)N(C)C)s2)CC1 | inconclusive: 26.7 µM [inhibitor, single point] | 
CC(C)(C)c1cc(=O)n(-c2ccccc2)[nH]1 |  | inactive: -9.49%
O=C(O)/C(=C\c1cccc(C(F)(F)F)c1)c1ccc(S(=O)(=O)N2CCCC2)s1 |  | inactive: 39%
COc1ncc2nc(-c3cccs3)c(=O)n(Cc3ccc(F)cc3)c2n1 | inconclusive: 1.12 µM [inhibitor, full curve] | 
CCOc1ccc(CCNC(=O)c2ccc(Cl)c(S(=O)(=O)N3CCOCC3)c2)cc1OCC | inconclusive: 15 µM [inhibitor, single point] | 

Single records (already shown).
`NC(=O)CCN1CCN(S(=O)(=O)/C=C/c2ccccc2)CC1` is entered as activity change, negative = inhibition: inactive: -12.8%
`CCc1ccc(-n2c(SCc3cc(=O)n4cc(Br)ccc4n3)nc3[nH]ncc3c2=O)cc1` is entered as Potency: inconclusive: 20 µM [inhibitor, single point]
`CN(CCOc1ccc(Cl)c(Cl)c1)Cc1ccccc1` is entered as Potency: inconclusive: 8.44 µM [inhibitor, single point]
